These results are taken from article PMC5424302.

This test addresses ASC (apoptosis-associated speck-like protein containing a CARD) (rat (endogenous in hippocampus)). As to the kind of experiment: co-IP; rat hippocampus lysates (500 ug) precipitated with 1 ug anti-ASC antibody overnight at 4 C, protein A agarose beads, washed five times with RIPA buffer, western blot; normal rats and rats exposed to CUS for 1, 2 or 3 weeks; IgG as negative control.

These are yes or no findings as the source states them, for the method shown. Binding seen in cells or lysates may run through a third protein. Binding calls can cover weak binding; strength is not graded here.

B1: active p10 caspase-1 (cleaved caspase-1) (domain or fragment, UniProt P43527 315-402)
chain: GIKKAHIEKDFIAFCSSTPDNVSWRHPVRGSLFIESLIKHMKEYAWSCDLEDIFRKVRFSFEQPDSRLQMPTTERVTLTKRFYLFPGH
As for B1, the binding entry is reported as “binds”.

B2: caspase-1 (caspase-1 p45, pro-caspase-1) (enzyme, UniProt P43527 1-402)
chain: MADKVLRAKRKQFINSVSVGTINGLLDELLEKRVLNQEEMDTIKLANITVMEKARDLCDHVTKKGPRASQMFITYICNEDCYLAEILELQSGPSAETVFVTEDSKGGHPFSSETKEKLNKEGGAFPGPSGSLKFCPLEIAQKLWKENHSEIYPIMKTPTRTRLALIICNTDFQHLSRRVGADVDLREMKLLLQDLGYTVKVKENLTALEMTKELKEFAACPEHKTSDSTFLVFMSHGLQEGICGITYSNEVADILKVDTIFQMMNTLKCPSLKDKPKVIIIQACRGEKQGVVLLKDSVGNSEEGFLTDAIFEDDGIKKAHIEKDFIAFCSSTPDNVSWRHPVRGSLFIESLIKHMKEYAWSCDLEDIFRKVRFSFEQPDSRLQMPTTERVTLTKRFYLFPGH
As to B2, the binding entry is “binds”.
